No constants are given. Whether binding was seen depends on the method and setting. In cells and extracts the contact can be indirect. Some binding calls cover weakened binding; strength is not graded here.
Molecular target: ryanodine receptor 2 (RyR2) (human (endogenous in SH-SY5Y)) (UniProt Q92736)
Experiment: co-IP; RyR2 immunoprecipitated from SH-SY5Y cell lysates with an RyR2-specific antibody in modified RIPA buffer (50 mM Tris-HCl pH 7.2, 0.9% NaCl, 5.0 mM NaF, 1.0 mM Na3VO4, 1% Triton X-100), overnight at 4 °C, protein A-Sepharose; immunoblot; cells: control, APPswe-expressing or Aβ-treated, with or without S107, ICI118-551, H-89, CGP 20712A, isoproterenol, β- or γ-secretase inhibitors

Protein sequences, listed by entry. Tags and fused reporters are not part of them.
UniProt Q92736: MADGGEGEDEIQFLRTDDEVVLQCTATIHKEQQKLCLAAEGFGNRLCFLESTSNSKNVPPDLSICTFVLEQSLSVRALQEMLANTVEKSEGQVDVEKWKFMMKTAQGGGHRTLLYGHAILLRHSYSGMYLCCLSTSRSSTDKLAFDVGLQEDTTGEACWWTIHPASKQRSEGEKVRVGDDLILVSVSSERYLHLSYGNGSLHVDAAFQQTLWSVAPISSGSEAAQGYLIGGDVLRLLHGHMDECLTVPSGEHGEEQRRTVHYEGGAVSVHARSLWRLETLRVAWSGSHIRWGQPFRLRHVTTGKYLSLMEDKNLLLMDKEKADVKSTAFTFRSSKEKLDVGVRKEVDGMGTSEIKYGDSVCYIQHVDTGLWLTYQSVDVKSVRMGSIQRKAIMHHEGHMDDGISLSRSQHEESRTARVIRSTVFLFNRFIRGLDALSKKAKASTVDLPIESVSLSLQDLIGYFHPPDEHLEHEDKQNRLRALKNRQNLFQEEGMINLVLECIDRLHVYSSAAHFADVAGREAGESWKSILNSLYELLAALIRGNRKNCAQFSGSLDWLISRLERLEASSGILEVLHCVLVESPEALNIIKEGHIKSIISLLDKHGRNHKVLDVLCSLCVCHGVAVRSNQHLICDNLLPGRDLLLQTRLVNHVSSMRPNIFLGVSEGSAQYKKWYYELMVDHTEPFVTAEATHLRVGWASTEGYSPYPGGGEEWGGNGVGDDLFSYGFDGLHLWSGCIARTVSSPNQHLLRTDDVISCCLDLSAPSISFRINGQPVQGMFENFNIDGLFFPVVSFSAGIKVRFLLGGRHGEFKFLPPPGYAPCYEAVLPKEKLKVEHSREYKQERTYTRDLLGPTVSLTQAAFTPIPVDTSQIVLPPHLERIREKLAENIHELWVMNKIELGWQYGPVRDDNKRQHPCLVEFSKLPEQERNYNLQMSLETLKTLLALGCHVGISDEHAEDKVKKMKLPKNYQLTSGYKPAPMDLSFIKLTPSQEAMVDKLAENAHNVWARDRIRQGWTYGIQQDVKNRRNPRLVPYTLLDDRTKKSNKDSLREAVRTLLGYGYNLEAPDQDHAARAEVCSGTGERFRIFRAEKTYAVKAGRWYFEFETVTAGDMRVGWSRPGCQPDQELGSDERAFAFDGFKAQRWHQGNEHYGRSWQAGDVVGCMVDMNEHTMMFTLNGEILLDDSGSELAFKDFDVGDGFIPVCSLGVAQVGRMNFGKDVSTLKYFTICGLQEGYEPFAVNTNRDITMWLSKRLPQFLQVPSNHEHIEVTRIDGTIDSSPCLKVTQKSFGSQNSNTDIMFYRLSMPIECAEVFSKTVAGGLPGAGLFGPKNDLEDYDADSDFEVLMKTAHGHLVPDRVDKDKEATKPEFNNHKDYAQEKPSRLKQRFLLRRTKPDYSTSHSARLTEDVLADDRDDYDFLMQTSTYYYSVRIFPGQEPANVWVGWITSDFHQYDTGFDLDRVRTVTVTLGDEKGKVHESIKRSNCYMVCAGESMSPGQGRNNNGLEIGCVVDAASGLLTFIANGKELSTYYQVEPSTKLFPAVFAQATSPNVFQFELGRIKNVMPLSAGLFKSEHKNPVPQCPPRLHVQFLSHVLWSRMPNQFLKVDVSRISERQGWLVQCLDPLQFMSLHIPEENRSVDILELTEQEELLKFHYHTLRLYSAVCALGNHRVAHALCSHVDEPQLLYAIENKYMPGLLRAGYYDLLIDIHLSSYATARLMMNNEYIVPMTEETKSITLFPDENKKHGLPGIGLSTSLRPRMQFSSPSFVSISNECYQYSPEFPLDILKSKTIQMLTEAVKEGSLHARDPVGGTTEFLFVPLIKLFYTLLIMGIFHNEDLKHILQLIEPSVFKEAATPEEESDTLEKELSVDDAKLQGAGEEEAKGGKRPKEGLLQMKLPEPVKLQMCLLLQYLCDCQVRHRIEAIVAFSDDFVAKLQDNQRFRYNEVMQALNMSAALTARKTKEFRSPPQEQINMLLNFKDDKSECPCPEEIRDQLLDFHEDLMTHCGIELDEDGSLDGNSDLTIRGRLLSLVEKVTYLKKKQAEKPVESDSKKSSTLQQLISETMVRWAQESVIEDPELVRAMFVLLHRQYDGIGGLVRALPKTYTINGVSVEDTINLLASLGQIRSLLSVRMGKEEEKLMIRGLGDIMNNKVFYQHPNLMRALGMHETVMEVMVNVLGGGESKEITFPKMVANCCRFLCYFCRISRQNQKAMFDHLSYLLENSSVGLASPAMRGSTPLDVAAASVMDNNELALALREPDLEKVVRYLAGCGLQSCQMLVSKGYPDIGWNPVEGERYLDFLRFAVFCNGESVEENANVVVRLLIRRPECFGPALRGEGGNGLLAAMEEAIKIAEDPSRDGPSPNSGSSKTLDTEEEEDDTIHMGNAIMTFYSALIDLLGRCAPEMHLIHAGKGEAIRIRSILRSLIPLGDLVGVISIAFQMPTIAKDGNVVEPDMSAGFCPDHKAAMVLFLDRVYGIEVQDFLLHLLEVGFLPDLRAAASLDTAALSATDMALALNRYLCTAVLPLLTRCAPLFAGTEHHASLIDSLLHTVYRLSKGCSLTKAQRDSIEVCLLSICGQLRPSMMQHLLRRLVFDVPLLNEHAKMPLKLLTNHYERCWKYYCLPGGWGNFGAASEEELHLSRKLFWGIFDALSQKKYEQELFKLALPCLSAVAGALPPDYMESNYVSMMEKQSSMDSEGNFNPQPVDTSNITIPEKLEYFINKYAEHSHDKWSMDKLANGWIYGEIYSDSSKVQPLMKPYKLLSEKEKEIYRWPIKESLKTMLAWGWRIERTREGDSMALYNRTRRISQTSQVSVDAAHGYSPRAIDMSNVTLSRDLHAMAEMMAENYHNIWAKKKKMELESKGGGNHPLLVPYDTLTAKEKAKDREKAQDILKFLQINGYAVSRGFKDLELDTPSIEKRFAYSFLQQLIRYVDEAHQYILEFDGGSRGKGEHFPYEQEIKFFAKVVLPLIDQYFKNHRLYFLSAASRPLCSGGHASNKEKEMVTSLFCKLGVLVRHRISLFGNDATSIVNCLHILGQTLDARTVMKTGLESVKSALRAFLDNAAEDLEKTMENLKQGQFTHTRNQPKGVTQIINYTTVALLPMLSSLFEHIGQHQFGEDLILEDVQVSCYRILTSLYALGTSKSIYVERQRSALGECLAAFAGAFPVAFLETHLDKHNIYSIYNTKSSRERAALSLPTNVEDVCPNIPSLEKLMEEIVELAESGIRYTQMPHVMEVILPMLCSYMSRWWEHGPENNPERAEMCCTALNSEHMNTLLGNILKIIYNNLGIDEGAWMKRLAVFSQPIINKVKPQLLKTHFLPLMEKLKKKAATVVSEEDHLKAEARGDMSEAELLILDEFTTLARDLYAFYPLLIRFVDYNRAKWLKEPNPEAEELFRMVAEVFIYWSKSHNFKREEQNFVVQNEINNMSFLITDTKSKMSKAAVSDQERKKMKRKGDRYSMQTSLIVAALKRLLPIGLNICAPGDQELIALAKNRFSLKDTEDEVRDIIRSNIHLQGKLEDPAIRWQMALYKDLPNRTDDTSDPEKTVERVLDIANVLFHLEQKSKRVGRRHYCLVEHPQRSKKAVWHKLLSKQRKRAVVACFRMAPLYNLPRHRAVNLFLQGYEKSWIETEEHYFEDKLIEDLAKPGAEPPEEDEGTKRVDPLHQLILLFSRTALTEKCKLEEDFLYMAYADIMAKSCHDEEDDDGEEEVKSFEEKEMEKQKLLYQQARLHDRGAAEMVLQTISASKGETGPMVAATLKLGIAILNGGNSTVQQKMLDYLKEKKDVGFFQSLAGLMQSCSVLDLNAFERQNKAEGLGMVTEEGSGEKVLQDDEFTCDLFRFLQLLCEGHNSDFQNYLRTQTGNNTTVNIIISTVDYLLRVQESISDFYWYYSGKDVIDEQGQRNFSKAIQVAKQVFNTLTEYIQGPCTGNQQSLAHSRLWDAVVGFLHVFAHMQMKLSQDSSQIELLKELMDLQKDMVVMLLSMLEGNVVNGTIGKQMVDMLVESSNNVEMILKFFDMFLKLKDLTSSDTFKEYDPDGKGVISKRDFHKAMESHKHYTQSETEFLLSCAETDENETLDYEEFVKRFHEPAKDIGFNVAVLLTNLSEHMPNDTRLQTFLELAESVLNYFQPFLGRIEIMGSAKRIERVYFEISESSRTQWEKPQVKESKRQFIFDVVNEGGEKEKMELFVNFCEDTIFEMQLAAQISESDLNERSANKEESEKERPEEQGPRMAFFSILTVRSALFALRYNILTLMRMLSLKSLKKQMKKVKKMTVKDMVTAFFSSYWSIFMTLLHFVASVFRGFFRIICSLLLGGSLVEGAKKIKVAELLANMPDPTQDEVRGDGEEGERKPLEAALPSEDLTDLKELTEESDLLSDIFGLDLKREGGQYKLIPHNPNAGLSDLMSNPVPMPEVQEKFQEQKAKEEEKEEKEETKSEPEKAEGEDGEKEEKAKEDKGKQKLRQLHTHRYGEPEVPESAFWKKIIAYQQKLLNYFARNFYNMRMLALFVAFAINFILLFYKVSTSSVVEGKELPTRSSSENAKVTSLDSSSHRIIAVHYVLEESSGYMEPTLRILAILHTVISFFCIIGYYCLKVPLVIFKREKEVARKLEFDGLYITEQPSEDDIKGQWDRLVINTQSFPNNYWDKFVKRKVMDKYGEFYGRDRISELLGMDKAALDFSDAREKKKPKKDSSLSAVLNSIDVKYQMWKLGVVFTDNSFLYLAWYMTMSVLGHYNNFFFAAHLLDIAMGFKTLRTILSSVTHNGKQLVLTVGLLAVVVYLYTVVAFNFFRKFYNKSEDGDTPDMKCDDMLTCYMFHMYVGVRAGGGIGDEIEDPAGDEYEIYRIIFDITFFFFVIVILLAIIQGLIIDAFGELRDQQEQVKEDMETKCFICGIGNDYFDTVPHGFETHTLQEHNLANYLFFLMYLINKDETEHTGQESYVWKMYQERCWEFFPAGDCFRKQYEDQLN
UniProt P68106: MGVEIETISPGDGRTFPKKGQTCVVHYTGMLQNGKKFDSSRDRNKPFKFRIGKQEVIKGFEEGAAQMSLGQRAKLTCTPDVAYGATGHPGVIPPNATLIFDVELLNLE
UniProt Q96SB3: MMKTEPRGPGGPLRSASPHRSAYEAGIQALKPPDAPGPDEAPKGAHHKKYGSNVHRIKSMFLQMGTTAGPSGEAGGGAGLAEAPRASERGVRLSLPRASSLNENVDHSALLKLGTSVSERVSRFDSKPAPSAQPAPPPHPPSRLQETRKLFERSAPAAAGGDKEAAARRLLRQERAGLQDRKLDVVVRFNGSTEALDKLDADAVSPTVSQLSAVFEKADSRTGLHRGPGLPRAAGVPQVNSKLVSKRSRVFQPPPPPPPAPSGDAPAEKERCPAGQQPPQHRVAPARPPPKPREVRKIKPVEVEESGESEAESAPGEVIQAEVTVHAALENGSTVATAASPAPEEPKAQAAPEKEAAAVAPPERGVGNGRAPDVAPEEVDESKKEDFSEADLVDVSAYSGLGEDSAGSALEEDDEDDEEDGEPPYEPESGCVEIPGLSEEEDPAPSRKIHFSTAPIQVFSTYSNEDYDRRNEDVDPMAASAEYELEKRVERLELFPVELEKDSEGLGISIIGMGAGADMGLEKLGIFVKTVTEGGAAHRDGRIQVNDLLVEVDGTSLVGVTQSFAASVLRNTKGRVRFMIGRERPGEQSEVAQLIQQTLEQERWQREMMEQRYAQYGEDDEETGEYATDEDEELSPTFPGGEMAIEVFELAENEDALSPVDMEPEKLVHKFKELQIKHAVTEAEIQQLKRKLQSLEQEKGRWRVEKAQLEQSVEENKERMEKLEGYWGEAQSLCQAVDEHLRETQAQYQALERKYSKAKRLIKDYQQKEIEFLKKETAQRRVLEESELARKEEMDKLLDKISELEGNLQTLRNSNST

| binding | Substance |
| --- | --- |
| binds | calstabin2 (FKBP12.6) (from UniProt P68106 1-108) |
| binds | spinophilin (from UniProt Q96SB3 1-817) |

Reference: PMC5473221
